Source: paper PMC509302
These are yes or no findings as the source states them, for the method shown. In cells and extracts the contact can be indirect.

Sequences of proteins named here, by UniProt entry; tags and fusion partners are left off.
UniProt Q13315: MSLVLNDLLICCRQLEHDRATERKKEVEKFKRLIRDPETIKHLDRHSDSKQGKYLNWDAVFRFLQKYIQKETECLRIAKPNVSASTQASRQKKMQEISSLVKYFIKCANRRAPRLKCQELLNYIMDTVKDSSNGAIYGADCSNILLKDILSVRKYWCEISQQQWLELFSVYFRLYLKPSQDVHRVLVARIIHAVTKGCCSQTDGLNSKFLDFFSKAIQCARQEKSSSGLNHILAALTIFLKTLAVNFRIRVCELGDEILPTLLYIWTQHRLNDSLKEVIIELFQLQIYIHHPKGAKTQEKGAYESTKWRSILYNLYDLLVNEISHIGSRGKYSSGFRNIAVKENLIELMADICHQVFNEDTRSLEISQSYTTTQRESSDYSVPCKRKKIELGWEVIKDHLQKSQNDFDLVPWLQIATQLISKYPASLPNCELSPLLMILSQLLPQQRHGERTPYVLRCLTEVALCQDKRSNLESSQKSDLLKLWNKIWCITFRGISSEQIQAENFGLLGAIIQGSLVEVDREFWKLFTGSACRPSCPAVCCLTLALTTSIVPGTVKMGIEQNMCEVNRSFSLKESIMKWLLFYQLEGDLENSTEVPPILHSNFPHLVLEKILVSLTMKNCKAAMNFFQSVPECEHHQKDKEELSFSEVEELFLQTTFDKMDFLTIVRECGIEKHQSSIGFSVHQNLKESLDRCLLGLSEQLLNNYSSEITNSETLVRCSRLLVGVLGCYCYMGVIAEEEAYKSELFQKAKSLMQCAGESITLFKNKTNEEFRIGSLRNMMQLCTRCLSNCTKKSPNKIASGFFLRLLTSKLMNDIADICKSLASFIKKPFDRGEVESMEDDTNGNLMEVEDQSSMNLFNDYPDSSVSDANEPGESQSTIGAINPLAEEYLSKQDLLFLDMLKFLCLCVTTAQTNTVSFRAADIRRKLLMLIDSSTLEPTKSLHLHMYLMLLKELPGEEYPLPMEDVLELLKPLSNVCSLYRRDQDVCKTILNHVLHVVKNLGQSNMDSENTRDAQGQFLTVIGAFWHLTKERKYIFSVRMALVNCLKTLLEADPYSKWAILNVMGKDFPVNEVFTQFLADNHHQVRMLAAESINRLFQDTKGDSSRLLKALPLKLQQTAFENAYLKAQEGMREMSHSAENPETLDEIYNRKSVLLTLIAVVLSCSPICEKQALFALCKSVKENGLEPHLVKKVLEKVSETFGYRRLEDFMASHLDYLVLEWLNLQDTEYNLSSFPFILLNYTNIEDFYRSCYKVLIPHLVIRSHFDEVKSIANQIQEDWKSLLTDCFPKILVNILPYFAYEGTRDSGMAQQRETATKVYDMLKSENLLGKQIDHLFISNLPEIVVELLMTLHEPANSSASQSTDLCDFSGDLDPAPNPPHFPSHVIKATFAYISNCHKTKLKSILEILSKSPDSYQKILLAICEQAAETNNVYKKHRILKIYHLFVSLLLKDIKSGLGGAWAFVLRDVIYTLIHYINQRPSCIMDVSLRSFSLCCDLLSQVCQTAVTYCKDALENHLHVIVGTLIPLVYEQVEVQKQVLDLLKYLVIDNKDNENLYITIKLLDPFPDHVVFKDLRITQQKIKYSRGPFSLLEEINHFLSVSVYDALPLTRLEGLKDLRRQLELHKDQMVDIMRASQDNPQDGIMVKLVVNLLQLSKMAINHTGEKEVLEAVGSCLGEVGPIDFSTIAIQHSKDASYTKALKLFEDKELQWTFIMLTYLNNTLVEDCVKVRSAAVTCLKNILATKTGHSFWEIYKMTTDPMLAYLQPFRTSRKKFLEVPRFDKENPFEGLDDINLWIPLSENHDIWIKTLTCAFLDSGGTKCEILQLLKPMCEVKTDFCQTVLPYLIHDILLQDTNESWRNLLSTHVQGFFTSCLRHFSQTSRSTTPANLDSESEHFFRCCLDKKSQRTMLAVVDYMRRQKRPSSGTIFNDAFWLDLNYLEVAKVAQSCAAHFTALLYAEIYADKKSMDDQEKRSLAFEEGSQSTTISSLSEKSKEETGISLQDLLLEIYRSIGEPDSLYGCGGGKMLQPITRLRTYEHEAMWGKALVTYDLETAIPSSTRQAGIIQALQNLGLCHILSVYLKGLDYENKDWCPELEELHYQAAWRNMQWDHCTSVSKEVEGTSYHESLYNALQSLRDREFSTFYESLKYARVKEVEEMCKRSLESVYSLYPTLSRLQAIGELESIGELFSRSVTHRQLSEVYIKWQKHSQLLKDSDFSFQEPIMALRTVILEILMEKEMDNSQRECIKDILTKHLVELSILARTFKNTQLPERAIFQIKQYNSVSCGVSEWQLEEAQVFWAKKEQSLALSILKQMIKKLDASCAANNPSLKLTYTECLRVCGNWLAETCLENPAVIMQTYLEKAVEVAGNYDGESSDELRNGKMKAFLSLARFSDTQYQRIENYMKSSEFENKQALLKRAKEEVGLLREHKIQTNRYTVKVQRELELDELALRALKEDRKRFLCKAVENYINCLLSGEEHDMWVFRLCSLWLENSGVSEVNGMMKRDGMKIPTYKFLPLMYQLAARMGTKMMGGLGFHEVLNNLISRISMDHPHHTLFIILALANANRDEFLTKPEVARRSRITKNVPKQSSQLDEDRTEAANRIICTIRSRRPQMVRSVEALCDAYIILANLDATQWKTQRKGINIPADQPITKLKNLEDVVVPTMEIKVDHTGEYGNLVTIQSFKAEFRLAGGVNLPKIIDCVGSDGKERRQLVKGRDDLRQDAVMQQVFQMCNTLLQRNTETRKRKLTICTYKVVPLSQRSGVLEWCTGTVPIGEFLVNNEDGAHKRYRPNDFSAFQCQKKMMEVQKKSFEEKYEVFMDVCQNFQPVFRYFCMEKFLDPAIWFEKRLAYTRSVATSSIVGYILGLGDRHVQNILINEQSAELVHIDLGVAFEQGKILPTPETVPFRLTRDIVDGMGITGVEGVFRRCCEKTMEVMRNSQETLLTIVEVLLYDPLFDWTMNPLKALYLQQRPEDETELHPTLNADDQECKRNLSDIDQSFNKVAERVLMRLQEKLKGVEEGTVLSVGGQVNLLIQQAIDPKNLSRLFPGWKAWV

Target: ATM kinase (human (endogenous in IMR90)) (UniProt Q13315)
Test: co-IP; extracts (0.42 M KCl, diluted to 150 mM KCl) of retrovirally infected cells; IP with anti-ATM (AB3) or anti-Cyclin D1 antibody and protein G-Sepharose, 4 °C; TRF2 or Nova1 detected in the pellets by immunoblotting

- binding: no binding
B1: Nova1 (protein, UniProt P51513 1-507)
chain: MMAAAPIQQNGTHTGVPIDLDPPDSRKRPLEAPPEAGSTKRTNTGEDGQYFLKVLIPSYAAGSIIGKGGQTIVQLQKETGATIKLSKSKDFYPGTTERVCLIQGTVEALNAVHGFIAEKIREMPQNVAKTEPVSILQPQTTVNPDRIKQTLPSSPTTTKSSPSDPMTTSRANQVKIIVPNSTAGLIIGKGGATVKAVMEQSGAWVQLSQKPDGINLQERVVTVSGEPEQNRKAVELIIQKIQEDPQSGSCLNISYANVTGPVANSNPTGSPYANTAEVLPTAAAAAGLLGHANLAGVAAFPAVLSGFTGNDLVAITSALNTLASYGYNLNTLGLGLSQAAATGALAAAAASANPAAAAANLLATYASEASASGSTAGGTAGTFALGSLAAATAATNGYFGAASPLAASAILGTEKSTDGSKDVVEIAVPENLVGAILGKGGKTLVEYQELTGARIQISKKGEFVPGTRNRKVTITGTPAATQAAQYLITQRITYEQGVRAANPQKVG
